The record followed here is PMC10218277.

In assay [1] the target is T1, cLUC-SlHY5 (tomato (Solanum lycopersicum)) (UniProt Q9SM50).
T1 sequence: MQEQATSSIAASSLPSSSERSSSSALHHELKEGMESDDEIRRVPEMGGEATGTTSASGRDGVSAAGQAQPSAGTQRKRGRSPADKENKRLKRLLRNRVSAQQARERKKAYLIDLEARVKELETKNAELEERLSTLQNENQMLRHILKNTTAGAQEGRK
The assay can be described thus: split reporter; firefly luciferase complementation imaging (LCI); nLUC and cLUC fusions co-expressed in leaves of 6-week-old N. benthamiana by Agrobacterium GV3101 infiltration; imaged after 1 d darkness at 22 °C and 1 d 16-h light/8-h dark.

The target of assay [2] is SlAN2 (tomato (Solanum lycopersicum)). In words: two-hybrid; CDSs in pGADT7 and pGBKT7, bait and prey vectors co-transformed into Y2Hgold; patched on SD/Ade/His/Leu/Trp plates with X-alpha-Gal, 28 °C, 3 days; which protein was bait is not told.

No constants are given. Whether binding was seen depends on the method and setting. A result given as binding can be weak or reduced; the word gives no strength. For some assays here: In cells and extracts the contact can be indirect. For some assays here: Tags and fused reporters may be left off the sequences shown.

As to “SlBBX24-nLUC (tomato (Solanum lycopersicum))”, the binding entry in assay [1] is given as “binds”.

B1: SlHY5 (protein, UniProt Q9SM50 1-158)
chain: MQEQATSSIAASSLPSSSERSSSSALHHELKEGMESDDEIRRVPEMGGEATGTTSASGRDGVSAAGQAQPSAGTQRKRGRSPADKENKRLKRLLRNRVSAQQARERKKAYLIDLEARVKELETKNAELEERLSTLQNENQMLRHILKNTTAGAQEGRK
In the case of B1, the binding entry in assay [2] is “binds”.
